Test results: PubChem BioAssay AID540276 (National Center for Advancing Translational Sciences (NCATS), 2011)
The campaign covered roughly 300,000 compounds. About 5,400 (1.8%) were called active. The shares of active, inactive and inconclusive entries below differ from those in the screen. Calls follow the shape of the full dose curve; tested in HEK293 cells. A potency beside an inconclusive call is a rough fit, not a confirmed value.

Experiment: qHTS for inhibitors of binding or entry into cells for Marburg Virus
Details: Marburg virus pseudotyped entry inhibition, cell reporter; activity change, negative = inhibition: at 37.8 µM (top of the series) unless noted
% is scaled to controls: 0 for no effect and ±100 for the full control effect; potency is read from the fitted curve at half-maximal effect.

Compound	Potency	activity change, negative = inhibition
Cc1cc(OCC(O)CN(CCO)CCO)ccc1Cl (stereo not drawn)	inconclusive: 11.2 µM [activator, partial curve]	–
C[N+]1(CC(=O)OCCCc2ccccc2)CCCC1	inconclusive: 0.891 µM [inhibitor, full curve, poor fit]	–
NC(CC(=O)NC(c1ccccc1)(c1ccccc1)c1ccccc1)C(=O)O (stereo not drawn)	–	inactive: -1.18% [at 46.1 µM]
O=C1CCc2cc(S(=O)(=O)Nc3ccc(C(F)(F)F)cc3)cc3c2N1CC3	–	inactive: -13.7%
O=C(Nc1ccc(O)cc1)c1cc2ccccc2c(=O)s1	inconclusive: 3.98 µM [activator, partial curve, poor fit]	–
N#Cc1ccc(NC(=S)Nc2ccccc2)cc1	–	inactive: -19.1%
O=C(NCCc1cccs1)c1ccc(Cl)cc1	inconclusive: 6.31 µM [inhibitor, partial curve, poor fit]	–
O=C(Nc1cccc(Cl)c1)c1ccc(F)c(S(=O)(=O)NCc2ccc3c(c2)OCO3)c1	inconclusive: 35.5 µM [inhibitor, single point]	–
Cc1ccc(NC(=O)Nc2cnccn2)cc1C	inconclusive: 8.91 µM [inhibitor, partial curve, poor fit]	–
CCC(C)NS(=O)(=O)c1ccc(S(=O)(=O)N2CC=C(c3ccc(F)cc3)CC2)cc1 (stereo not drawn)	inconclusive: 7.08 µM [inhibitor, partial curve]	–
COc1ccc(Oc2c(C(F)(F)F)oc3c(CN4CCCC(C)C4)c(O)ccc3c2=O)cc1 (stereo not drawn)	–	inactive: -3.63% [at 46.1 µM]
O=C(Nc1ccc(N2CCOCC2)cc1)Nc1ccc2nc(-c3ccco3)c(-c3ccco3)nc2c1	inconclusive: 18.3 µM [inhibitor, partial curve]	–
Cn1nc(C(F)(F)F)c(C#N)c1N1CCN(c2cccc(C(F)(F)F)c2)CC1	inconclusive: 3.16 µM [inhibitor, partial curve, poor fit]	–
CC1CCN(c2ccc(-c3cccc(NC(=O)C(F)(F)F)c3)nn2)CC1	inconclusive: 1.58 µM [inhibitor, full curve, poor fit]	–
COc1ccccc1P(=O)(Cc1ccccc1[N+](=O)[O-])c1ccccc1 (stereo not drawn)	inconclusive: 20 µM [inhibitor, partial curve, poor fit]	–
COCCNc1oc(-c2ccc(F)cc2)nc1C#N	inconclusive: 5.01 µM [activator, partial curve, poor fit]	–
CC(=O)c1ccc(S(=O)(=O)NC2CC(=O)N(c3ccc(C)cc3)C2)cc1 (stereo not drawn)	inconclusive: 2.24 µM [inhibitor, partial curve, poor fit]	–
CCn1cnc2cc(NC(=O)c3cccs3)ccc21	inconclusive: 2.82 µM [activator, partial curve, poor fit]	–
c1ccc(NCc2nc(-c3ccccc3)no2)cc1	inconclusive: 3.98 µM [activator, single point]	–
O=C(Nc1ccc2c(c1)OCCO2)C(c1ccc(F)cc1)N1CCCCC1 (stereo not drawn)	inconclusive: 32.6 µM [activator, single point]	–
Cc1c(C(=O)O)oc2c1C(O)CCC2 (stereo not drawn)	inconclusive: 16.4 µM [activator, partial curve, poor fit]	–

Structures shown so far with a thiophene ring, fused or not (2):
Compound	Potency	activity change, negative = inhibition
O=C(NCCc1cccs1)c1ccc(Cl)cc1	inconclusive: 6.31 µM [inhibitor, partial curve, poor fit]	–
CCn1cnc2cc(NC(=O)c3cccs3)ccc21	inconclusive: 2.82 µM [activator, partial curve, poor fit]	–

Following part

Compound	Potency	activity change, negative = inhibition
CC1OC(C)(C)OC1C1CNc2nc(NC(=O)C(C)(C)C)[nH]c(=O)c2N1C(=O)c1cccnc1 (stereo not drawn)	inconclusive: 4.47 µM [activator, partial curve, poor fit]	–
COc1cc(/C=N/Nc2nc3ccccc3s2)ccc1OC(=O)c1ccccc1F	inconclusive: 22.4 µM [inhibitor, single point]	–
CCCCCN(C(=O)CCC(=O)OCC(=O)N1C(C)CCCC1C)c1c(N)n(CCCC)c(=O)[nH]c1=O (stereo not drawn)	inconclusive: 31.6 µM [activator, single point]	–
COc1ccc(-c2csc(N(CCc3ccc(OC)c(OC)c3)C(=O)COc3ccccc3)n2)cc1	inconclusive: 1.3 µM [inhibitor, full curve, poor fit]	–
CCn1c(CC(=O)Nc2cccc(OC)c2)nnc1SCC(=O)Nc1nccs1	inconclusive: 10.3 µM [inhibitor, partial curve, poor fit]	–
CSc1nc2[nH]c(=O)n(O)c(=O)c2n1Cc1ccccc1	–	inactive: -0.441% [at 46.1 µM]
COc1ccc(CNS(=O)(=O)c2ccc3c(c2)CC(C)N3C(=O)C2CC2)cc1 (stereo not drawn)	inconclusive: 28.2 µM [inhibitor, single point]	–
COc1cc(N=Nc2ccc(C(=O)N(C)C)cc2)c(C)cc1N	inconclusive: 2 µM [activator, full curve]	–
CC1CCCC(C)N1C(=C(Cl)Cl)C(=C1SCCS1)[N+](=O)[O-] (stereo not drawn)	inconclusive: 22.4 µM [inhibitor, single point]	–
N#Cc1ccccc1NC(=O)c1ccccc1OCC(=O)Nc1ccc2c(c1)oc1ccccc12	inconclusive: 25.9 µM [inhibitor, single point]	–
CC(Sc1nnc(-c2ccccc2F)n1C1CC1)C(=O)NC(N)=O (stereo not drawn)	inconclusive: 5.62 µM [inhibitor, single point]	–
Cc1cc(C(=O)Cn2nc(C(=O)O)c3ccccc3c2=O)c(C)n1CCc1ccc(F)cc1	active: 5.62 µM	–
S=C(Nc1ccccc1)Nc1ccc(OCc2ccc(Cl)cc2Cl)cc1	inconclusive: 7.3 µM [inhibitor, partial curve, poor fit]	–
COc1cccc(NC(=O)CSc2nc3c([nH]c4ccccc43)c(=O)n2C)c1	inconclusive: 11.2 µM [inhibitor, single point]	–
S=C(NC1CCCC1)N1CCN(c2ccc(Cl)cc2)CC1	inconclusive: 10 µM [inhibitor, partial curve, poor fit]	–
CCCn1c(-c2cccs2)nc2c1c(=O)[nH]c(=O)n2Cc1ccccc1	–	inactive: -20.1% [at 46.1 µM]
COc1ccc2oc(C(=O)OCC(=O)N(C)C3CCS(=O)(=O)C3)c(C)c2c1 (stereo not drawn)	–	inactive: 16%
CN(C)C(CNc1ccc(C(N)=O)cc1[N+](=O)[O-])c1ccccc1 (stereo not drawn)	–	inactive: 13.4% [at 46.1 µM]
O=C(c1cc([N+](=O)[O-])ccc1Cl)N1CCN(c2ccc([N+](=O)[O-])cc2)CC1	inconclusive: 35.5 µM [inhibitor, single point]	–
CCCN(CC1CC1)C(=S)NC(=O)c1ccc(S(=O)(=O)N2CCOCC2)cc1	inconclusive: 6.31 µM [activator, partial curve, poor fit]	–
CCc1ccc(C(=O)NNC(=O)c2ccc3c(=O)n4c(nc3c2)CCC4)cc1	–	inactive: 12.5%

Compound	Potency	activity change, negative = inhibition
COC1=C[C@@H](C(=O)N[C@H]2CCCC[C@H]2NC(C)=O)[C@]2(C)Cc3ccccc3[C@H]2CC1=O	inconclusive: 0.0168 µM [inhibitor, full curve, poor fit]	–
O=C1C(NS(=O)(=O)c2cccs2)=C(N2CCN(c3cccc(Cl)c3)CC2)C(=O)c2ccccc21	inconclusive: 17.8 µM [inhibitor, partial curve, poor fit]	–
CCOC(=O)CNC(=O)CSc1nc(-c2ccc(C)cc2)ns1	inconclusive: 25.1 µM [inhibitor, partial curve, poor fit]	–
O=C(CC(NC(=O)c1ccccc1)c1ccccc1)Nc1ccc(F)c(F)c1 (stereo not drawn)	inconclusive: 20 µM [inhibitor, single point]	–
O=C(CCCc1ccccc1)Nc1ccc2c(c1)OCCO2	inconclusive: 3.55 µM [inhibitor, full curve, poor fit]	–
N/C(=N\OC(=O)c1ccccc1)C(C(=O)NOC(=O)c1ccccc1)C1CCCCC1 (stereo not drawn)	inconclusive: 3.16 µM [activator, single point]	–
COc1ccc(CC(=O)Nc2ccc(-c3noc(-c4ccc(Cl)cc4)n3)cc2)cc1	inconclusive: 5.8 µM [inhibitor, partial curve]	–
Cc1ccc(S(=O)(=O)N2CCN(C(=O)CSc3ccc(Cl)cc3)CC2)cc1	inconclusive: 35.5 µM [inhibitor, single point]	–
CCc1ccc2[nH]c(O)c(N=Nc3nc(-c4ccccc4)cs3)c2c1	inconclusive: 2.51 µM [inhibitor, single point]	–
O=C(NC(Nc1nc2ccc([N+](=O)[O-])cc2s1)(C(F)(F)F)C(F)(F)F)c1ccccc1Cl	inconclusive: 1.46 µM [inhibitor, full curve, poor fit]	–
Cc1ccc(Cl)cc1N1CCN(C(=O)c2ccc(CN3CCOCC3)cc2)CC1	inconclusive: 20.6 µM [inhibitor, single point]	–
Cn1c(=O)c2c(SCc3cccc(C(F)(F)F)c3)nc(-c3ccco3)nc2n(C)c1=O	inconclusive: 25.9 µM [inhibitor, single point]	–
CCn1c(=O)c([N+](=O)[O-])c(NCCCn2ccnc2)c2ccccc21	–	inactive: 2.91%
COc1cc(C(=O)Nc2nc3ccc(C)cc3s2)ccc1OCc1c(C)noc1C	–	inactive: -3.19%
O=C(COc1ccc(Br)cc1Cl)Nc1ncn[nH]1	inconclusive: 10 µM [activator, partial curve, poor fit]	–
O=C(Nc1ccc(Cl)cc1)Nc1cccc(C(=O)O)c1	active: 0.92 µM	–
O=C(NCc1ccc(F)cc1)c1ccc(Br)o1	inconclusive: 5.62 µM [activator, single point]	–
CCC(=O)c1c[nH]c(C(=O)NCCCn2ccnc2)c1	inconclusive: 2.24 µM [inhibitor, partial curve, poor fit]	–
CC(=O)Oc1ccc(-c2ccc(C(=O)Nc3cccc(S(=O)(=O)N4CCOCC4)c3)cc2)cc1	inconclusive: 35.5 µM [inhibitor, single point]	–
COc1ccc2c(c1)C(=NN)c1cc(OC)ccc1-2	–	inactive: 14.8%
O=C(CCl)N(c1ccccc1)c1ccccc1	inconclusive: 8.91 µM [inhibitor, partial curve, poor fit]	–

Quoted from the listing:
O=C(NC(Nc1nc2ccc([N+](=O)[O-])cc2s1)(C(F)(F)F)C(F)(F)F)c1ccccc1Cl | Potency: inconclusive: 1.46 µM [inhibitor, full curve, poor fit]
Cn1c(=O)c2c(SCc3cccc(C(F)(F)F)c3)nc(-c3ccco3)nc2n(C)c1=O | Potency: inconclusive: 25.9 µM [inhibitor, single point]
O=C(CCl)N(c1ccccc1)c1ccccc1 | Potency: inconclusive: 8.91 µM [inhibitor, partial curve, poor fit]
